Laboratory results as given in the supplement of paper PMC10849652.
Some of the results follow.

The chains behind the UniProt entries cited, without tags or fusion partners. Where a name states a change or a piece, a line headed by the entry shows the natural chain unless it says otherwise.
UniProt Q6P2E9: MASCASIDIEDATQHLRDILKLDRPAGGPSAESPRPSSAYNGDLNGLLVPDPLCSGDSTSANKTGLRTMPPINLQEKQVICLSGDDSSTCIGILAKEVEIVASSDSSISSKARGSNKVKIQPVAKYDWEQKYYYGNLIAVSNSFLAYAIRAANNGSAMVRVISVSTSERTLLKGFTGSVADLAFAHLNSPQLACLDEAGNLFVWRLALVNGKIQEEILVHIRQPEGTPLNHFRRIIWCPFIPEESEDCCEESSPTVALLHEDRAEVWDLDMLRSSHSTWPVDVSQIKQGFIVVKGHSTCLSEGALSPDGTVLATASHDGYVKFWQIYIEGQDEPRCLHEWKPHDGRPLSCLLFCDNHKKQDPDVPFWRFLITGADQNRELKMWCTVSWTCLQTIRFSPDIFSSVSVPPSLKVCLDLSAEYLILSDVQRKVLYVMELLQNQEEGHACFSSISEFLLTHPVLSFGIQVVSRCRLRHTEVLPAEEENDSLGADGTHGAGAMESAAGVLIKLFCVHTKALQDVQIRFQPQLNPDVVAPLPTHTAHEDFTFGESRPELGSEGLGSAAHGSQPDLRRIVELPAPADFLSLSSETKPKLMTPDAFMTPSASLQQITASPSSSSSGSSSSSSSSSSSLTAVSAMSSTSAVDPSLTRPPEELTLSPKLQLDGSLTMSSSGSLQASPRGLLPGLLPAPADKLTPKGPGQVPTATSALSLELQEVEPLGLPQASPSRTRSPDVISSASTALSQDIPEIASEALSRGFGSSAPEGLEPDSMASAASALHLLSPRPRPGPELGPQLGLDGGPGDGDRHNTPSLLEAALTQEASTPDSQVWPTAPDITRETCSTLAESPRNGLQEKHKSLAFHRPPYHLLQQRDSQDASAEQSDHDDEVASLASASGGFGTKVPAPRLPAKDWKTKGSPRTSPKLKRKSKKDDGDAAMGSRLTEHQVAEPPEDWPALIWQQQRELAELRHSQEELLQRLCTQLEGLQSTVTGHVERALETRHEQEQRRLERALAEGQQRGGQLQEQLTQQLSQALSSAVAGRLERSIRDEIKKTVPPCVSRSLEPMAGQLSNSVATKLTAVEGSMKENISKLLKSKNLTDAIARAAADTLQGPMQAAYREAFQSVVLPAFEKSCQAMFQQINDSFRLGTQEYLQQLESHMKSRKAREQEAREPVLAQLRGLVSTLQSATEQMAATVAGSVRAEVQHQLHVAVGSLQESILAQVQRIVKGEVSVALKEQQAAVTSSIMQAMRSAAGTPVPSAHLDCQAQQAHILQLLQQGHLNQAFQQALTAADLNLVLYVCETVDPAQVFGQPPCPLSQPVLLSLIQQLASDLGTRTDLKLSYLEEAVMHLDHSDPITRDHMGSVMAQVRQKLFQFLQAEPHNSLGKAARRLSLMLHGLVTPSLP
UniProt P60981: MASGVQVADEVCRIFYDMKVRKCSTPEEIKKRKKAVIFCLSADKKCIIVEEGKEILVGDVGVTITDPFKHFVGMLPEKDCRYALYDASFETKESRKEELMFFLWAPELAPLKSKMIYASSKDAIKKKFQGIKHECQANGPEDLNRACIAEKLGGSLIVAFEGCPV
UniProt P63167, whole entry, looked up: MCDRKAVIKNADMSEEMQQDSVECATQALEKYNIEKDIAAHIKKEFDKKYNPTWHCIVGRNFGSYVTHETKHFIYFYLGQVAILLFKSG
UniProt Q9Y295: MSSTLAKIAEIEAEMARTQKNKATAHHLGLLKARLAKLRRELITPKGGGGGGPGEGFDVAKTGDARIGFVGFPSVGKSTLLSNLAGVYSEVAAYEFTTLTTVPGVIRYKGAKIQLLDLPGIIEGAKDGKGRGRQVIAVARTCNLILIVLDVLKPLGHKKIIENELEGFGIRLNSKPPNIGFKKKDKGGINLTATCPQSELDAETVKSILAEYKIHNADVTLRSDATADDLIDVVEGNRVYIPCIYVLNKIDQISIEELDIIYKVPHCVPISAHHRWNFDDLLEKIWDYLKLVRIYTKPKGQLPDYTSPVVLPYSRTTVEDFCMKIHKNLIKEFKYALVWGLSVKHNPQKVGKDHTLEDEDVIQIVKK
UniProt Q9NZN4: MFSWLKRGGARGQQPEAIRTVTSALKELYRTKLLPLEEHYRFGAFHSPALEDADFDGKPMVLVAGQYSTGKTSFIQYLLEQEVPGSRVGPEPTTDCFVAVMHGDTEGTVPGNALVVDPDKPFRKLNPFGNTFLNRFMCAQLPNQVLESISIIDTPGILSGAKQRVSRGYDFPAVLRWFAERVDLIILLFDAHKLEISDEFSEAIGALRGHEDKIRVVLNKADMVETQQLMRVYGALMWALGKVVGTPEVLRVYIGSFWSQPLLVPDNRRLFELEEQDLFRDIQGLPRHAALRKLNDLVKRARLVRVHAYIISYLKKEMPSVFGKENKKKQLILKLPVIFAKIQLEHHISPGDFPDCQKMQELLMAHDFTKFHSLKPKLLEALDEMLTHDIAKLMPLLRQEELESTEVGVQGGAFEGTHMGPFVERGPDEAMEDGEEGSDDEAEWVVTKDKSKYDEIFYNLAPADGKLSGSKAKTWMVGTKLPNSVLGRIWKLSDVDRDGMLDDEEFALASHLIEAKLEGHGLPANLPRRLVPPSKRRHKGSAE
UniProt O43324: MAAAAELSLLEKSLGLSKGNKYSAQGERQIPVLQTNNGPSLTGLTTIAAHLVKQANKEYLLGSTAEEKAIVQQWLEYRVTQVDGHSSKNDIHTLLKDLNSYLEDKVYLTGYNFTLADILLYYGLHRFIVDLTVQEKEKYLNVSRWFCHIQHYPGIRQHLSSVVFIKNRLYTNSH
UniProt Q56P03: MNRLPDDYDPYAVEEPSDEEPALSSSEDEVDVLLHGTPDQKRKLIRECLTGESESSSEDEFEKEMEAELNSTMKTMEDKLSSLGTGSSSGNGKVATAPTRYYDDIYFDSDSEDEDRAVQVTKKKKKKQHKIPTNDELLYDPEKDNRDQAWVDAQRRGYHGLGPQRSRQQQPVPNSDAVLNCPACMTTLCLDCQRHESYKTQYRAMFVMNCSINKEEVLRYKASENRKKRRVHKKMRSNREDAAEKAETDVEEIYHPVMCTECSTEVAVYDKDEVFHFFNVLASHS
UniProt P23919: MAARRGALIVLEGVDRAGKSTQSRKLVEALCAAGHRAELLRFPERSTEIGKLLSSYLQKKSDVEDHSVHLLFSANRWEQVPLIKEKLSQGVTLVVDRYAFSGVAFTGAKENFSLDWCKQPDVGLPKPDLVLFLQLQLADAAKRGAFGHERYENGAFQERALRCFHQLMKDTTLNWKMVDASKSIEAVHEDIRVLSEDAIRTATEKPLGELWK
UniProt P29692: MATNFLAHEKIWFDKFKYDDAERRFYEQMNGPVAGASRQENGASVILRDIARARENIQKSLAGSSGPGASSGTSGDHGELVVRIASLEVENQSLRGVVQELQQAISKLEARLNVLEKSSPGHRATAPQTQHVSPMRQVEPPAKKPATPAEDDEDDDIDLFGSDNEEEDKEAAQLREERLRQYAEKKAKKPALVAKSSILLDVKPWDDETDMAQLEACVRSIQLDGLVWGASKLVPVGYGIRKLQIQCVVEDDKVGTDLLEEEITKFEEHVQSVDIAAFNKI
UniProt Q9BTV6: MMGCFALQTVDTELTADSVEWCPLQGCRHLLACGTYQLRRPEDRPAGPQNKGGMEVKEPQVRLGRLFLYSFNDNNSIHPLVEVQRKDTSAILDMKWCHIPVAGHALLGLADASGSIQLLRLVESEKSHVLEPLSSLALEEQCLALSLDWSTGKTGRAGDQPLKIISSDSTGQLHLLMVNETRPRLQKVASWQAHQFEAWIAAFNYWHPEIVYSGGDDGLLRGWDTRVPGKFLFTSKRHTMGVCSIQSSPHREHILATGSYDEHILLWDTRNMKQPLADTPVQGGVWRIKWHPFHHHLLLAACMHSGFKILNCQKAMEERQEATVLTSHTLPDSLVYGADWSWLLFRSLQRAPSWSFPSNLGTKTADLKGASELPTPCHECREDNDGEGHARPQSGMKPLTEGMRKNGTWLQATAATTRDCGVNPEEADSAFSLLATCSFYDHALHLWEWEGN
UniProt Q9H9B1: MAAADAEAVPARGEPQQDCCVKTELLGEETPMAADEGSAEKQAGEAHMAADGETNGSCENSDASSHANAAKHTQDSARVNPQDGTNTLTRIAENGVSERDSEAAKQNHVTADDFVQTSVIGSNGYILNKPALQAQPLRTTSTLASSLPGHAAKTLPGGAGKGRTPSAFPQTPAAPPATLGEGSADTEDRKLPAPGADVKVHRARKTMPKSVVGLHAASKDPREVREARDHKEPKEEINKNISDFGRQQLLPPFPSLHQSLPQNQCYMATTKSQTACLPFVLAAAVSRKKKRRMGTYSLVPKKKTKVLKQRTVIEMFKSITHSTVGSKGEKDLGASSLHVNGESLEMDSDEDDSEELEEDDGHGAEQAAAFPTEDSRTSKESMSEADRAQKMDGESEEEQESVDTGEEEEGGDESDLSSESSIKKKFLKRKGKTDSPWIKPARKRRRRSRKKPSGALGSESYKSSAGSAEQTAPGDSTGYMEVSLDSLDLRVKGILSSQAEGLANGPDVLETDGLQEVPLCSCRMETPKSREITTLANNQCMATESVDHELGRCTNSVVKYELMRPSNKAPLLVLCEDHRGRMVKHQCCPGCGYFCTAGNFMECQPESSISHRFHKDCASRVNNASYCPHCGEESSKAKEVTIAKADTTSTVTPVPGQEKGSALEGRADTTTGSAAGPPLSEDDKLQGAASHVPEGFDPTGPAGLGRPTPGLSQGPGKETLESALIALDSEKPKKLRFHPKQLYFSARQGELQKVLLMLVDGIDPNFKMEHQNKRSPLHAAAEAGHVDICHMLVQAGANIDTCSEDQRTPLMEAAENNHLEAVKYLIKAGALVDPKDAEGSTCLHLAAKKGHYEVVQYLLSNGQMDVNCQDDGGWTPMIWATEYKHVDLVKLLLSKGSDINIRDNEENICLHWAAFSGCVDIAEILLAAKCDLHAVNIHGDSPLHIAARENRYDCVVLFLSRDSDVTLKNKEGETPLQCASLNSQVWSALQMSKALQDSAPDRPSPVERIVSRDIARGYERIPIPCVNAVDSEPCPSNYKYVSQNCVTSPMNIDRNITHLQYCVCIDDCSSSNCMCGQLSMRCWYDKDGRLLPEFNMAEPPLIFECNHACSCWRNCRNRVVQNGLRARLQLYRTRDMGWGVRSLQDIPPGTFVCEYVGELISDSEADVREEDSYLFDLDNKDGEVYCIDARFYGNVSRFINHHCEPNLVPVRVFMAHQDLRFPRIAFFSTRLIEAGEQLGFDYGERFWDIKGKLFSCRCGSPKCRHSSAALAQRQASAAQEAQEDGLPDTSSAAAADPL
UniProt Q8N5C7: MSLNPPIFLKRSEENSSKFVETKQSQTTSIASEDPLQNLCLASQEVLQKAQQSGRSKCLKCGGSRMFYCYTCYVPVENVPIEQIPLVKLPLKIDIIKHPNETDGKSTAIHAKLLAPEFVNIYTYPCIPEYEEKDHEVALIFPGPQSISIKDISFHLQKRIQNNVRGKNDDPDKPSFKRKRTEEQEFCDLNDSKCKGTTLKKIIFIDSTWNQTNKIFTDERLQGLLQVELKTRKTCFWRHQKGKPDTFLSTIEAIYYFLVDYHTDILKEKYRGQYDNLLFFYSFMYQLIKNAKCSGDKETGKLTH
UniProt O77932: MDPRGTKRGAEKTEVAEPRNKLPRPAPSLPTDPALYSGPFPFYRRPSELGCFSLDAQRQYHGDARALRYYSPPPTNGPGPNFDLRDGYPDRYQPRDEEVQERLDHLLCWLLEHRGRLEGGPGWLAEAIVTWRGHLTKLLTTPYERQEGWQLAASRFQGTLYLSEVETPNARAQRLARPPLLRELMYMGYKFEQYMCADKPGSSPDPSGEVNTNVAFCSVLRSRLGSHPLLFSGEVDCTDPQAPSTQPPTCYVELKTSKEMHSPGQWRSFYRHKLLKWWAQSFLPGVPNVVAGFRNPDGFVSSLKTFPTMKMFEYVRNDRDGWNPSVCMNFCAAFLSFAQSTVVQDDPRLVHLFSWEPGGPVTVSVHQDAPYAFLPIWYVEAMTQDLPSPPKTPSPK
UniProt Q8WWZ3: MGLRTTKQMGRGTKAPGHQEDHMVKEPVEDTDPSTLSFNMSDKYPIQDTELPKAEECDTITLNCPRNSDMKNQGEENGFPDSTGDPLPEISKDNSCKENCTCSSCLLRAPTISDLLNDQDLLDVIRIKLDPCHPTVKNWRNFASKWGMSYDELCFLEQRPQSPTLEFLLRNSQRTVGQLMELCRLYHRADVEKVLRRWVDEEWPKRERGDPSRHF
EEF1AKMT2, A0A494BZY7, UniProt A0A494BZY7, whole entry, looked up: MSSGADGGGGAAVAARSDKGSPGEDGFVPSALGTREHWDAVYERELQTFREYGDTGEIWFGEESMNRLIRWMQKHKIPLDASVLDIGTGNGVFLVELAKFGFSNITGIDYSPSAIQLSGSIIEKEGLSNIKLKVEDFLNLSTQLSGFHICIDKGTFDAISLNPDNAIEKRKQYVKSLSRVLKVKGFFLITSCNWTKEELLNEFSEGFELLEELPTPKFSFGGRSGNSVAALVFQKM
UniProt Q8N9N8: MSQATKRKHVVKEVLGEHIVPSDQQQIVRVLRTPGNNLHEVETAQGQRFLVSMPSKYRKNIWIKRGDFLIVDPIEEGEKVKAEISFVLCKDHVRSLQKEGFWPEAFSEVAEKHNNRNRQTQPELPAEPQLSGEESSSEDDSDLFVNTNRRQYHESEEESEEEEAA

Tests used:
Test in all cases: log2 fold change, soluble protein after heating vs DMSO (PISA); higher = thermal stabilisation; K562 lysate, 10 uM; active = over 0.2 and 3.5 SD of the protein, either way, in both replicates (recomputed)
vemurafenib = compound: CCCS(=O)(=O)Nc1ccc(F)c(C(=O)c2c[nH]c3ncc(-c4ccc(Cl)cc4)cc23)c1F [vemurafenib]
How it was run: (§1)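 Dounce homogenisation of K562 pellets in PBS pH 7.4 with 1 mM MgCl2 produced a crude extract, used at 1 mg/mL protein. Exposure to 10 μM compound lasted 30 min, and aliquots were then heated for 3 min across 48°C-58°C, pooled and brought to 0.5% NP-40 at 4°C. The supernatant after 21,000xg for 90 min was quantified by TMTpro 16plex LC-MS/MS with channel sums equalised. Duplicate values are given as log-two fold change in thermal stability relative to solvent controls.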

[1] = compound: CCCS(=O)(=O)Nc1ccc(F)c(C(=O)c2c[nH]c3ncc(Cl)cc23)c1F
How it was run: as §1

barasertib = compound: CCN(CCCOc1ccc2c(Nc3cc(CC(=O)Nc4cccc(F)c4)[nH]n3)ncnc2c1)CCOP(=O)(O)O [barasertib]
How it was run: as §1

[2] = compound: CC[C@@H]1C(=O)N(C)c2cnc(Nc3ccc(C(=O)NC4CCN(C)CC4)cc3OC)nc2N1C1CCCC1
How it was run: as §1

volasertib = compound: CC[C@@H]1C(=O)N(C)c2cnc(Nc3ccc(C(=O)N[C@H]4CC[C@H](N5CCN(CC6CC6)CC5)CC4)cc3OC)nc2N1C(C)C [volasertib]
How it was run: as §1

[3] = compound: CCn1c(C(=O)N(C2CC2)C2CC2)cc2c3c(ncn3C)c(Nc3cc(C)n(C)n3)nc21
How it was run: as §1

[4] = compound: CCn1cc(-c2ccnc3[nH]c(-c4cccc(CN(C)C)c4)cc23)c(-c2ccc(NC(=O)N(C)C)cc2)n1
How it was run: as §1

[5] = compound: CN1CCC(CNc2ccc3ncc(-c4cccc(OC(F)(F)F)c4)n3n2)CC1
How it was run: as §1

saracatinib = compound: CN1CCN(CCOc2cc(OC3CCOCC3)c3c(Nc4c(Cl)ccc5c4OCO5)ncnc3c2)CC1 [saracatinib]
How it was run: as §1

sotrastaurin = compound: CN1CCN(c2nc(C3=C(c4c[nH]c5ccccc45)C(=O)NC3=O)c3ccccc3n2)CC1 [sotrastaurin]
How it was run: as §1

Row | Target | log2 fold change (vemurafenib) | log2 fold change [1] | log2 fold change (barasertib) | log2 fold change [2] | log2 fold change (volasertib) | log2 fold change [3] | log2 fold change [4] | log2 fold change [5] | log2 fold change (saracatinib) | log2 fold change (sotrastaurin)
1 | DUSP9 (UniProt Q99956) | inactive: 0 | inactive: 0.034 | inactive: 0.014 | inactive: -0.023 | inactive: -0.004 | inactive: 0.028 | inactive: 0.01 | inactive: -0.115 | inactive: 0.06 | inactive: -0.038
2 | EDC4 (UniProt Q6P2E9) | inactive: 0.053 | inactive: 0.004 | inactive: 0.026 | inactive: -0.013 | inactive: -0.015 | inactive: 0.015 | inactive: -0.055 | inactive: 0.001 | inactive: 0.011 | inactive: 0.011
3 | DSTN (UniProt P60981) | inactive: -0.006 | inactive: -0.002 | inactive: -0.005 | inactive: -0.015 | inactive: -0.013 | inactive: 0.015 | inactive: 0.025 | inactive: 0.035 | inactive: -0.005 | inactive: -0.011
4 | DYNLL1 (UniProt P63167) | inactive: -0.035 | inactive: -0.018 | inactive: 0.011 | inactive: 0.078 | inactive: 0.017 | inactive: -0.024 | inactive: -0.174 | inactive: 0.008 | inactive: 0.007 | inactive: -0.007
5 | EDRF1 (UniProt Q3B7T1) | inactive: -0.074 | inactive: -0.043 | inactive: 0.032 | inactive: -0.183 | inactive: -0.008 | inactive: -0.026 | inactive: 0.045 | inactive: -0.106 | inactive: 0.046 | inactive: -0.006
6 | DPP9 isoform 2 (UniProt Q86TI2) | inactive: -0.001 | inactive: -0.014 | inactive: 0.031 | inactive: -0.03 | inactive: -0.031 | inactive: -0.002 | inactive: -0.046 | inactive: 0.015 | inactive: -0.018 | inactive: 0.016
7 | DRG1 (UniProt Q9Y295) | inactive: -0.02 | inactive: 0.009 | inactive: 0.002 | inactive: 0.01 | inactive: 0 | inactive: -0.025 | inactive: 0.016 | inactive: -0.008 | inactive: -0.012 | inactive: -0.003
8 | EHD2 (UniProt Q9NZN4) | inactive: 0.046 | inactive: 0 | inactive: 0.022 | inactive: 0.007 | inactive: -0.111 | inactive: 0.005 | inactive: 0.016 | inactive: -0.066 | inactive: 0.075 | inactive: 0.017
9 | DYRK1A (UniProt Q13627) | inactive: -0.06 | inactive: -0.009 | inactive: 0.025 | inactive: -0.047 | inactive: -0.016 | inactive: 0.038 | inactive: -0.004 | inactive: 0.044 | inactive: -0.017 | inactive: -0.013
10 | ECI1 (UniProt P42126) | inactive: -0.006 | inactive: 0.012 | inactive: 0.021 | inactive: -0.006 | inactive: 0.042 | inactive: 0.017 | inactive: -0.007 | inactive: 0.058 | inactive: 0.004 | inactive: 0.001
11 | EEF1E1 (UniProt O43324) | inactive: 0.023 | inactive: 0 | inactive: 0.104 | inactive: -0.043 | inactive: -0.073 | inactive: 0.002 | inactive: -0.05 | inactive: -0.01 | inactive: -0.004 | inactive: 0.03
12 | DPP8 (UniProt Q6V1X1) | inactive: -0.189 | inactive: -0.064 | inactive: 0.07 | inactive: -0.167 | inactive: 0.03 | inactive: 0.048 | inactive: -0.044 | inactive: -0.006 | inactive: -0.041 | inactive: 0.091
13 | EAPP (UniProt Q56P03) | inactive: 0.246 | inactive: 0.038 | inactive: -0.048 | inactive: 0.06 | inactive: 0.02 | inactive: 0.009 | inactive: -0.085 | inactive: -0.092 | inactive: 0.034 | inactive: -0.008
14 | EEF2 (UniProt P13639) | inactive: -0.012 | inactive: -0.002 | inactive: -0.028 | inactive: 0.014 | inactive: -0.001 | inactive: 0.012 | inactive: -0.007 | inactive: 0.019 | inactive: -0.018 | inactive: -0.004
15 | DYSF isoform 13 (UniProt O75923) | inactive: 0.01 | inactive: 0.019 | inactive: 0.06 | inactive: 0.04 | inactive: -0.091 | inactive: -0.096 | inactive: -0.009 | inactive: 0.037 | inactive: 0.011 | inactive: -0.008
16 | DTYMK (UniProt P23919) | inactive: -0.008 | inactive: 0.042 | inactive: 0.022 | inactive: -0.062 | inactive: 0.006 | inactive: 0.059 | inactive: 0.011 | inactive: -0.032 | inactive: 0.011 | inactive: -0.033
17 | EHBP1 isoform 2 (UniProt Q8NDI1) | inactive: 0.117 | inactive: 0 | inactive: 0.058 | inactive: 0.067 | inactive: -0.015 | inactive: -0.085 | inactive: 0.084 | inactive: -0.034 | inactive: 0.045 | inactive: 0.046
18 | ECPAS (UniProt Q5VYK3) | inactive: 0.002 | inactive: 0.007 | inactive: 0.031 | inactive: -0.028 | inactive: -0.049 | inactive: 0.022 | inactive: 0.024 | inactive: -0.052 | inactive: 0.002 | inactive: 0.026
19 | DYNLL2 (UniProt Q96FJ2) | inactive: 0.028 | inactive: -0.075 | inactive: 0.122 | inactive: 0.031 | inactive: 0.034 | inactive: 0.015 | inactive: -0.068 | inactive: 0.004 | inactive: -0.093 | inactive: -0.103
20 | EEF1D isoform 2 (UniProt P29692) | inactive: 0.018 | inactive: -0.001 | inactive: -0.047 | inactive: -0.011 | inactive: 0.005 | inactive: -0.007 | inactive: -0.05 | inactive: 0.06 | inactive: 0.011 | inactive: -0.007
21 | DRAP1 (UniProt E9PQX9) | inactive: -0.026 | inactive: -0.016 | inactive: 0.068 | inactive: -0.011 | inactive: 0.005 |  | inactive: -0.078 | inactive: 0.038 | inactive: 0.179 | 
22 | DVL3 (UniProt Q92997) | inactive: 0.309 | inactive: 0.113 | inactive: 0.083 | inactive: 0.069 | inactive: -0.064 | inactive: -0.012 | inactive: -0.252 | inactive: -0.019 |  | inactive: -0.047
23 | DPH7 (UniProt Q9BTV6) | inactive: 0.003 | inactive: -0.006 | inactive: -0.036 | inactive: 0.078 | inactive: -0.016 | inactive: 0 | inactive: -0.015 | inactive: 0.03 | inactive: -0.017 | inactive: 0.009
24 | EHMT1 (UniProt Q9H9B1) | inactive: 0.045 | inactive: -0.004 | inactive: 0.026 | inactive: -0.037 | inactive: -0.056 | inactive: -0.085 | inactive: -0.118 | inactive: 0.024 | inactive: -0.011 | inactive: -0.035
25 | DTWD1 (UniProt Q8N5C7) | inactive: 0.028 | inactive: 0.018 | inactive: -0.005 | inactive: 0.024 | inactive: -0.036 | inactive: 0.016 | inactive: -0.026 | inactive: -0.032 | inactive: -0.033 | inactive: 0.019
26 | DXO (UniProt O77932) | inactive: -0.064 | inactive: 0.028 | inactive: -0.005 | inactive: -0.001 | inactive: -0.049 | inactive: 0.089 | inactive: 0.01 | inactive: 0.015 | inactive: -0.006 | inactive: -0.064
27 | EDARADD (UniProt Q8WWZ3) | inactive: -0.066 | inactive: 0.02 | active: 0.255 | inactive: -0.023 | inactive: -0.006 | inactive: -0.011 | inactive: -0.14 | inactive: 0.057 | inactive: 0.04 | inactive: -0.074
28 | EEF1AKMT2, A0A494BZY7 | inactive: -0.04 | inactive: 0.041 | inactive: -0.023 | inactive: -0.046 | inactive: -0.029 | inactive: 0.019 | inactive: 0.001 | inactive: -0.026 | inactive: -0.01 | inactive: -0.003
29 | EIF1AD (UniProt Q8N9N8) | inactive: -0.047 | inactive: 0.002 | inactive: -0.052 | inactive: -0.08 | inactive: 0.02 | inactive: 0.006 | inactive: -0.021 | inactive: 0.019 | inactive: -0.011 | inactive: -0.009

From no. 17 up to 18, copied from above:
Row | Target | log2 fold change (vemurafenib) | log2 fold change [1] | log2 fold change (barasertib) | log2 fold change [2] | log2 fold change (volasertib) | log2 fold change [3] | log2 fold change [4] | log2 fold change [5] | log2 fold change (saracatinib) | log2 fold change (sotrastaurin)
17 | EHBP1 isoform 2 (UniProt Q8NDI1) | inactive: 0.117 | inactive: 0 | inactive: 0.058 | inactive: 0.067 | inactive: -0.015 | inactive: -0.085 | inactive: 0.084 | inactive: -0.034 | inactive: 0.045 | inactive: 0.046
18 | ECPAS (UniProt Q5VYK3) | inactive: 0.002 | inactive: 0.007 | inactive: 0.031 | inactive: -0.028 | inactive: -0.049 | inactive: 0.022 | inactive: 0.024 | inactive: -0.052 | inactive: 0.002 | inactive: 0.026
